Data from PMC12412611.

Molecular target: T1, Flag-RIG-I (retinoic acid-inducible gene I), O95786
T1 chain: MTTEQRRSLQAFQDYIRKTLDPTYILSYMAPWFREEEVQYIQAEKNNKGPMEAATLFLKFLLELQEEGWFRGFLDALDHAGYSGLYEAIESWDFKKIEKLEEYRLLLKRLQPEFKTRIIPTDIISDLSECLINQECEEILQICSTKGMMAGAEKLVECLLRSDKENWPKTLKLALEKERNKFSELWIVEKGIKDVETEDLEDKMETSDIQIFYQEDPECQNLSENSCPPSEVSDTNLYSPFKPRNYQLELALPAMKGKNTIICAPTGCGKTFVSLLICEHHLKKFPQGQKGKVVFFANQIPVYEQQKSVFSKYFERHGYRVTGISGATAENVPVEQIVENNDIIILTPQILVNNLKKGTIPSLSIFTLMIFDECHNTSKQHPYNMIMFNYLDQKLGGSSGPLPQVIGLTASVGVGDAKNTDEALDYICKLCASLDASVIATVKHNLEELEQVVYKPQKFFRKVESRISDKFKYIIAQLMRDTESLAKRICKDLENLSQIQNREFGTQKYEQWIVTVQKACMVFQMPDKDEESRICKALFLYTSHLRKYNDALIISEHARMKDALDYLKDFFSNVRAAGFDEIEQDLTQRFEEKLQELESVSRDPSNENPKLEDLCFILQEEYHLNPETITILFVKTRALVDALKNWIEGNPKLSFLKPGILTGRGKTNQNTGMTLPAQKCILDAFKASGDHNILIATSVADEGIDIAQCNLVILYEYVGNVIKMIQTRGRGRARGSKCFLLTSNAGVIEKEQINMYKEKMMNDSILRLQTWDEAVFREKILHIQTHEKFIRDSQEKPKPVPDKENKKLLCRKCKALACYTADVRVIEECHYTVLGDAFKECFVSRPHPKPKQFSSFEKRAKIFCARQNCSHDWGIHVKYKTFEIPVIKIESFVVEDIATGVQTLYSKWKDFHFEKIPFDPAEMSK
Test: affinity purification with mass spectrometry; immunoprecipitates of Flag-tagged RIG-I or TBK1 from HEK293T co-transfected with or without GSDMD-CT; SDS-PAGE bands, trypsin, LC-MS/MS against Swissprot_Human
Conditions: remark: other sources report otherwise

B1: endogenous TRIM28 (Tripartite motif-containing 28), Q13263 1-835 (enzyme)
chain: MAASAAAASAAAASAASGSPGPGEGSAGGEKRSTAPSAAASASASAAASSPAGGGAEALELLEHCGVCRERLRPEREPRLLPCLHSACSACLGPAAPAAANSSGDGGAAGDGTVVDCPVCKQQCFSKDIVENYFMRDSGSKAATDAQDANQCCTSCEDNAPATSYCVECSEPLCETCVEAHQRVKYTKDHTVRSTGPAKSRDGERTVYCNVHKHEPLVLFCESCDTLTCRDCQLNAHKDHQYQFLEDAVRNQRKLLASLVKRLGDKHATLQKSTKEVRSSIRQVSDVQKRVQVDVKMAILQIMKELNKRGRVLVNDAQKVTEGQQERLERQHWTMTKIQKHQEHILRFASWALESDNNTALLLSKKLIYFQLHRALKMIVDPVEPHGEMKFQWDLNAWTKSAEAFGKIVAERPGTNSTGPAPMAPPRAPGPLSKQGSGSSQPMEVQEGYGFGSGDDPYSSAEPHVSGVKRSRSGEGEVSGLMRKVPRVSLERLDLDLTADSQPPVFKVFPGSTTEDYNLIVIERGAAAAATGQPGTAPAGTPGAPPLAGMAIVKEEETEAAIGAPPTATEGPETKPVLMALAEGPGAEGPRLASPSGSTSSGLEVVAPEGTSAPGGGPGTLDDSATICRVCQKPGDLVMCNQCEFCFHLDCHLPALQDVPGEEWSCSLCHVLPDLKEEDGSLSLDGADSTGVVAKLSPANQRKCERVLLALFCHEPCRPLHQLATDSTFSLDQPGGTLDLTLIRARLQEKLSPPYSSPQEFAQDVGRMFKQFNKLTEDKADVQSIIGLQRFFETRMNEAFGDTKFSAVLVEPPPMSLPGAGLSSQELSGGPGDGP
- binding: binds

Results are given in words; binding and its absence hold for the method and conditions named. Binding seen in cells or lysates may run through a third protein. These calls come from enrichment with a bait or labelling near it, and not all partners need be listed. Tags and fused reporters may be left off the sequences shown.
